From US20200024335A1 (BERG, published 2020) come the findings set out here.

Test [1] concerns the target T1, E. coli-expressed partial FLNB (aa1416-2089), Filamin B immunogen (human) (UniProt O75369).
T1 sequence: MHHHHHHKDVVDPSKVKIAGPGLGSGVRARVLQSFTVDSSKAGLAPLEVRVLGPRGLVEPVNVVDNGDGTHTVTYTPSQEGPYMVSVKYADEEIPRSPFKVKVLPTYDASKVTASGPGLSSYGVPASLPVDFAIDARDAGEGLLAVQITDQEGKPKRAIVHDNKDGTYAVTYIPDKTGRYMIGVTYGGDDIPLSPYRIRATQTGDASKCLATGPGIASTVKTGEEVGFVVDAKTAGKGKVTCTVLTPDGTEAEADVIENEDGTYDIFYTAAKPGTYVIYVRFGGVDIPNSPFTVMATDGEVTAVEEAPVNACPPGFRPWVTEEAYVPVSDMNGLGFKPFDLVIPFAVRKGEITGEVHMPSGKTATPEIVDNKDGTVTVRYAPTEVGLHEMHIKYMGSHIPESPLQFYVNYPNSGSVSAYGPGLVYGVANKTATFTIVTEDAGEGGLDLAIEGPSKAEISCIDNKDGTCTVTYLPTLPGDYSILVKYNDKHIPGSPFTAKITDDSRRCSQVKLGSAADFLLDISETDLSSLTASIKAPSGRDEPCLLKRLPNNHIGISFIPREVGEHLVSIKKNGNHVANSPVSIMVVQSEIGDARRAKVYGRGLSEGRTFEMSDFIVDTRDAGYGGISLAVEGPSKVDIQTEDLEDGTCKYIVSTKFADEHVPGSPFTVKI
Put plainly: ELISA, coated protein, hybridoma supernatant.

Test [2] deals with T2, FLNB (standards, controls and FLNB in human serum or plasma samples, sandwich ELISA of Example 5) (human) (UniProt O75369).
T2 sequence (looked up): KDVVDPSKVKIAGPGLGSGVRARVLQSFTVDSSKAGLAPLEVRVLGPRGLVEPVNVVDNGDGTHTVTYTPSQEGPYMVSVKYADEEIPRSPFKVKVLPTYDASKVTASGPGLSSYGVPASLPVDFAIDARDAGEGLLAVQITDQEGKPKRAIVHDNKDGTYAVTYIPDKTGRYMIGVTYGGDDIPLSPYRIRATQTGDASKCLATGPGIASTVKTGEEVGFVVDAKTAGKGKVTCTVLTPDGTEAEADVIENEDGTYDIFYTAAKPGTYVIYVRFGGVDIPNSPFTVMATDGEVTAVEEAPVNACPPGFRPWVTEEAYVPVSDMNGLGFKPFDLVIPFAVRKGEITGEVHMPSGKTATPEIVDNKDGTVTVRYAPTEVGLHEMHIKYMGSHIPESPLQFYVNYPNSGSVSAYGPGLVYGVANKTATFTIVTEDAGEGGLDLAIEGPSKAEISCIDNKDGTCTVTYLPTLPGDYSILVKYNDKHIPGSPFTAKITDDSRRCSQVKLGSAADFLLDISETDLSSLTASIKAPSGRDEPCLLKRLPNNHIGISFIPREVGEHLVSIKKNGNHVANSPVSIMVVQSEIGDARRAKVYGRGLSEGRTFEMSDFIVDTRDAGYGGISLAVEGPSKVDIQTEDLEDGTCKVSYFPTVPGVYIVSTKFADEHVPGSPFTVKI
Put plainly: sandwich ELISA, 3F10 coated as capture antibody. (In general: ELISA stands for enzyme-linked immunosorbent assay.)

Test [3] concerns the target T2, FLNB (standards, controls and FLNB in human serum or plasma samples, sandwich ELISA of Example 5) (human). Put plainly: sandwich ELISA, biotin-linked 5H7 as detection antibody.

No constants are given. Whether binding was seen depends on the method and setting. Some results given as binding are weak or reduced against the parent protein; the word gives no strength.

B1: 3F10 murine monoclonal anti-FLNB antibody (antibody, V domains shown)
VH: QVQLQQPGAELVKPGASVKLSCKASGYTFTSYWMHWVKQRPGQGLEWIGMIHPNSGSTNYNEKFKSKATLTVDKSSSTAYMQLSSLTSEDSAVYYCAIYGSGPWFAYWGQGTLVTVSA
VL: DIQMTQSPASLSASVGETVTITCRASENIYSSLAWYQQKQGKSPQLLVYYAKTLAEGVPSRFSGSGSGTQFSLKINRLQPEDFGSYYCQHHYGSPLTFGAGTKLELK
notes: Tested as hybridoma supernatant or purified antibody; also called clone 3F10; anti-FLNB antibody (3F10)
Turning to B1, the binding entry in test [1] and in test [2] was “binds” in each case.

B2: 5H7 murine monoclonal anti-FLNB antibody (antibody, IgG2b, V domains shown)
VH: DVQLQESGPGLVKPSQSLSLTCSVTGYSITSGYYWNWIRQFPGNKLEWMGYISYDGSNNYNPSLKNRISITRDTSKNQFFLRLNSVTTEDTATYYCARETWASFDYWGQGTTLTVSS
VL: DIVMTQSQKFMSTTVGDRVGITCKASQNVGIAVAWYQQKPGQSPRLLIYSASYRYTGVPDRFSGSGSGTDFTLTINNMQSEDLADYFCQQYSSYPLTFGSGTKLEIK
notes: also called clone 5H7; biotin-linked monoclonal antibody specific for FLNB (5H7)
On to B2, for which the binding result in test [1] and in test [3] was “binds” in each case.
